Patent publication US20200147120A1 (NATIONAL UNIVERSITY CORPORATION CHIBA UNIVERSITY, published 2020)
No constants are given. Whether binding was seen depends on the method and setting. Some entries that bind do so weakly or less than the wild type.

Chains of the proteins cited; added tags and fusions are not shown.
UniProt Q96GM5: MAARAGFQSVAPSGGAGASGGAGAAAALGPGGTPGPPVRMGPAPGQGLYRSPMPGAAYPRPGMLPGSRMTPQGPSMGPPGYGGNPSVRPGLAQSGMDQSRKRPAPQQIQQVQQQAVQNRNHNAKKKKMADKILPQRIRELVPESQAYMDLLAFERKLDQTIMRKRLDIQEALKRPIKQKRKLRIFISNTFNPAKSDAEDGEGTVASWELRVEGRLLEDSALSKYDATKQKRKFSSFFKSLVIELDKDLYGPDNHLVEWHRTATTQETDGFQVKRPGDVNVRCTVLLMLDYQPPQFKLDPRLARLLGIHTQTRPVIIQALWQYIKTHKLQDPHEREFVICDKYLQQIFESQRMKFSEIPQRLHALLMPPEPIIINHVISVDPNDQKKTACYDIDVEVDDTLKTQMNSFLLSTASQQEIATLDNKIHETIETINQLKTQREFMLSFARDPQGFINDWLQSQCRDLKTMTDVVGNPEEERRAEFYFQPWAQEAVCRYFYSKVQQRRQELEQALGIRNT
UniProt Q12824: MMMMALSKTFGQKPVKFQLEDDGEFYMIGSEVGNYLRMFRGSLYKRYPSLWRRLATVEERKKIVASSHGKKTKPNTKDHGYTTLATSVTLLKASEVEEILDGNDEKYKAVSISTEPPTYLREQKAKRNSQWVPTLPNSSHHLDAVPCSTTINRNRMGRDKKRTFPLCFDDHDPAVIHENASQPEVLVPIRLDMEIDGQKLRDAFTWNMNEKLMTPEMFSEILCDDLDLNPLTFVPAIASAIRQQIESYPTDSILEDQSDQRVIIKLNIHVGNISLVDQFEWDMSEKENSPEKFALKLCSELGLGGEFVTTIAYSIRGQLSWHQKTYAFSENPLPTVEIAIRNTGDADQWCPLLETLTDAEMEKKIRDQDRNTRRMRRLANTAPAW

What was measured:
Test in all cases: binding test of DPF2 truncation mutants; format not described
[1] = target: BAF60a (UniProt Q96GM5)
[2] = target: Ini1 (UniProt Q12824)
[3] = target: T1, NF-κB subunit p52 (UniProt Q00653)
T1 sequence (looked up): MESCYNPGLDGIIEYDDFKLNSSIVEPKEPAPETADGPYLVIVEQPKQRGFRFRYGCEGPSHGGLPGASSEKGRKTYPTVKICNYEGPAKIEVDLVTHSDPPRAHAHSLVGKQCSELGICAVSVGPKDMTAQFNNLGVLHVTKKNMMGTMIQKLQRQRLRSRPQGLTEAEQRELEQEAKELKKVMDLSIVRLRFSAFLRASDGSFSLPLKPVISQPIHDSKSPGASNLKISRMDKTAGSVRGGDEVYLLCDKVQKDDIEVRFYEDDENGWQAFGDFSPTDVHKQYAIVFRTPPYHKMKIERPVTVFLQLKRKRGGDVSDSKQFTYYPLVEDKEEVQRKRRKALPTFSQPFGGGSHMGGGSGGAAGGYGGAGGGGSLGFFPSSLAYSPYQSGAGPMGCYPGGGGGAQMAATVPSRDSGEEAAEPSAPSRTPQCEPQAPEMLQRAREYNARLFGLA

Measured: binding

B1: DPF2-CT1 (CT1 peptide of DPF2, amino acid residues 1 to 84) (peptide)
peptide: MAAVVENVVKLLGEQYYKDAMEQCHNYNARLCAERSVRLPFLDSQTGVAQSNCYIWMEKRHRGPGLASGQLYSYPARRWRKKRR
notes: One of a series of truncation mutants of DPF2
binds: all assays above
